Assay results published in patent US20050277656A1, “Combination comprising docetaxel and a CDK inhibitor” (Cyclacel Limited, priority 2002, published 2005).
pIC50: −log10 of the molar value.

System: PKC

Structure (SMILES): CC[C@H](CO)Nc1nc(NCc2ccccc2)c2ncn(C(C)C)c2n1 [roscovitine, 6-benzylamino-2-[(R)-1-ethyl-2-hydroxyethylamino]-9-isopropylpurine]
- pIC50: < 4.30
